According to patent US6706698B2, “α-Substituted β-aminoethyl phosphonate derivatives” (Ilex Products, Inc., priority 2000, dated 2004):
Some results were stated once for a whole list of compounds, not compound by compound. For at least one compound, name, drawing or mass did not settle the structure.

Experiments:
apo (a) = apo (a) secretion in primary cultures of Cynomolgus hepatocytes (ELISA); format: cell-based, Cynomolgus monkey; conditions: 20 μM, 6-24 hours, vs ethanol control
Procedure: The compounds of formula (I) were assayed for being able to effectively lower the production of apo (a) in primary cultures of Cynomolgus hepatocytes.
Hepatocytes were isolated from livers of male adult Cynomolgus monkeys by the two-step collagenase perfusion method according to C. Guguen-Guillouzo and A. Guillouzo “Methods for preparation of adult and fetal hepatocytes” p.1-12 in “Isolated and Cultured Hepatocytes”, les editions Inserm Paris and John Libbey Eurotext London (1986).
The viability of cells was determined by Trypan blue staining. The cells were then seeded at a density of 1.5-2.105 viable cells per 2 cm^2 in 24 well tissue culture plates in a volume of 500 μl per well of Williams E tissue culture medium containing 10% fetal calf serum. Cells were incubated for 6-24 hours at 37° C. in a CO2 incubator (5% CO2) in the presence of 20 μM of the test compounds dissolved in ethanol. Four wells were used for each compound. Nicotinic acid and steroid hormones were used as references to validate the assay system since they are known to decrease apo (a) in man. Control cells were incubated in the presence of ethanol only.
The amount of apo (a) secreted in culture medium was assayed directly by ELISA using a commercially available kit. Changes in apo (a) concentration in culture medium are given as the percentage of value measured for the control plates.

Lp(a) = test: In vivo plasma Lp(a) lowering in male cynomolgus monkeys; design: species or system cynomolgus monkey; conditions: 50 mg/kg/day orally by gavage for 2 weeks, Day 7 or 14
apo B = test: In vivo apo B lowering in male cynomolgus monkeys (ELISA); design: species or system cynomolgus monkey; conditions: 50 mg/kg/day orally by gavage for 2 weeks, Day 7 or Day 14
LDL cholesterol = test: In vivo LDL cholesterol lowering in male cynomolgus monkeys (immuno turbidimetric method); design: species or system cynomolgus monkey; conditions: 50 mg/kg/day orally by gavage for 2 weeks, Day 7 or Day 14
total plasma cholesterol = test: In vivo total plasma cholesterol lowering in male cynomolgus monkeys (enzymatic method); design: species or system cynomolgus monkey; conditions: 50 mg/kg/day orally by gavage for 2 weeks, Day 7 or Day 14

Row | SMILES | change in apo (a) secretion in culture medium, percentage of control (apo (a)) | also measured
1 | CCOP(=O)(OCC)/C(=C\Nc1cccnc1)c1cc(OC)c(O)c(OC)c1 [Compound 1, (Z)-diethyl α-(3,5-dimethoxy-4-hydroxyphenyl)-β-[N-(3-pyridyl)-amino]-vinylphosphonate] | −19 to −55% | 
2 | CCOP(=O)(OCC)/C(=C\Nc1ccc(C)nc1C)c1cc(C)c(O)c(OC)c1 [Compound 5] | −19 to −55% | 
3 | CCOP(=O)(OCC)/C(=C\Nc1cnccn1)c1cc(OC)c(O)c(OC)c1 [Compound 6, (Z)-diethyl α-(3,5-dimethoxy-4-hydroxyphenyl)-β-[N-(pyrazinyl)-amino]-vinylphosphonate] | −19 to −55% | 
4 | COc1cc(/C(=C/Nc2cnccn2)P(=O)(OC(C)C)OC(C)C)cc(OC)c1O [Compound 7, (Z)-diisopropyl α-(3,5-dimethoxy-4-hydroxyphenyl)-β-[N-(pyrazinyl)-amino]-vinylphosphonate] | −19 to −55% | 
5 | CCOP(=O)(OCC)/C(=C/Nc1cccnc1)c1cc(OC)c(O)c(OC)c1 [Compound 13, (E)-diethyl α-(3,5-dimethoxy-4-hydroxyphenyl)-β-[N-(3-pyridyl)-amino]-vinylphosphonate] | −19 to −55% | 
6 | COc1cc(/C(=C\Nc2cccnc2)P(=O)(OC(C)C)OC(C)C)cc(OC)c1O [Compound 14, (E)-diisopropyl α-(3,5-dimethoxy-4-hydroxyphenyl)-β-[N-(3-pyridyl)-amino]-vinylphosphonate] | −19 to −55% | 
7 | CCOP(=O)(OCC)/C(=C/Nc1cccnc1)c1cc(C)c(O)c(OC)c1 [Compound 15, (E)-Diethyl α-(4-hydroxy-3-methoxy-5-methylphenyl)-β-[N-(3-pyridyl)-amino]-vinylphosphonate] | −19 to −55% | plasma Lp(a), % change from pre-dose at Day −1 (Lp(a)): −20% to −40; apo B, % change from pre-dose at Day −1 (apo B): −28% to −42; LDL cholesterol, % change from pre-dose at Day −1 (LDL cholesterol): −14% to −22; total plasma cholesterol, % change from pre-dose at Day −1 (total plasma cholesterol): −17% to −20
8 | COc1cc(/C(=C\Nc2ccc(C)nc2C)P(=O)(OC(C)C)OC(C)C)cc(OC)c1O [Compound 17] | −19 to −55% | 
9 | CCOP(=O)(OCC)/C(=C/Nc1ccc(C)nc1C)c1cc(C)c(O)c(OC)c1 [Compound 18] | −19 to −55% | plasma Lp(a), % change from pre-dose at Day −1 (Lp(a)): −20% to −40; apo B, % change from pre-dose at Day −1 (apo B): −28% to −42; LDL cholesterol, % change from pre-dose at Day −1 (LDL cholesterol): −14% to −22; total plasma cholesterol, % change from pre-dose at Day −1 (total plasma cholesterol): −17% to −20
10 | COc1cc(/C(=C\Nc2ccc(C)nc2C)P(=O)(OC(C)C)OC(C)C)cc(C)c1O [Compound 19] | −19 to −55% | 
11 | CCOP(=O)(OCC)/C(=C/Nc1ccc(C)nc1)c1cc(C)c(O)c(OC)c1 [Compound 20] | −19 to −55% | 
12 | COc1cc(/C(=C\Nc2cnccn2)P(=O)(OC(C)C)OC(C)C)cc(OC)c1O [Compound 22, (E)-diisopropyl α-(3,5-dimethoxy-4-hydroxyphenyl)-β-[N-(pyrazinyl)-amino]-vinylphosphonate] | −19 to −55% | 
13 | CCOP(=O)(OCC)C(C)(CNc1cnccn1)c1cc(C)c(O)c(OC)c1 (stereo not drawn) [Example 27] | −19 to −55% | 
